Measured values from paper PMC6413085, “A Validated HPLC-MS/MS Assay for 14-O-[(4,6-Diaminopyrimidine-2-yl)thioacetyl] Mutilin in Biological Samples and Its Pharmacokinetic, Distribution and Excretion via Urine and Feces in Rats” (Molecules, 2019).
Further values from the same series stand in other lists.

Test: Stability of DPTM in plasma, tissue homogenates, urine and feces (QC samples)
Format: physicochemical, rat
Method: Stability of DPTM and IS was examined by comparing the analytes’ concentrations in freshly prepared samples with those of samples maintained under different conditions, including the 24 h storage at room temperature, three freeze and thaw cycles, and storage at −70 °C for 4 weeks, respectively. Analyzing three levels of QC samples were used to assess the stability (accuracy and precision) with six replicates.
For the construction of calibration curves, 20 μL of each corresponding standard working solution (0.05, 0.2, 0.5, 1, 2, 5, 10, 20 and 40 μg/mL) was evaporated to dryness by nitrogen at 40 °C. The calibration standards (5, 20, 50, 100, 200, 500, 1000, 2000 and 4000 ng/mL) were prepared by adding 200 μL of blank plasma, various tissue homogenates (including heart, liver, spleen, lung, kidney, large intestine, small intestine, ileum, cecum, bladder, brain, jejunum and colon) or urine and feces to the residue, respectively. Quality control (QC) samples (10, 200 and 3000 ng/mL) were obtained by the same way as the calibration standards. All solutions were stored at −70 °C before use for no longer than 4 weeks.

Stability RE (Colon, 10 ng/mL, Freeze-thaw Cycles): 6.3% | Stability RE (Colon, 10 ng/mL, Long-term (−70 °C, 4 Weeks)): 4.8% | Stability RE (Colon, 200 ng/mL, Freeze-thaw Cycles): 7.2% | Stability RE (Colon, 200 ng/mL, Long-term (−70 °C, 4 Weeks)): 2.2% | Stability RE (Colon, 200 ng/mL, Short-term (25 °C, 24 h)): 6.8% | Stability RE (Colon, 3000 ng/mL, Freeze-thaw Cycles): −4.3% | Stability RE (Colon, 3000 ng/mL, Long-term (−70 °C, 4 Weeks)): 2.3% | Stability RE (Colon, 3000 ng/mL, Short-term (25 °C, 24 h)): 7.3% | Stability RE (Fecal, 10 ng/mL, Freeze-thaw Cycles): 4.8% | Stability RE (Fecal, 10 ng/mL, Long-term (−70 °C, 4 Weeks)): 3.3% | Stability RE (Fecal, 10 ng/mL, Short-term (25 °C, 24 h)): 3.2% | Stability RE (Fecal, 200 ng/mL, Freeze-thaw Cycles): 3.6% | Stability RE (Fecal, 200 ng/mL, Long-term (−70 °C, 4 Weeks)): 4.1% | Stability RE (Fecal, 200 ng/mL, Short-term (25 °C, 24 h)): 2.9% | Stability RE (Fecal, 3000 ng/mL, Freeze-thaw Cycles): 4.7% | Stability RE (Fecal, 3000 ng/mL, Long-term (−70 °C, 4 Weeks)): 4.3% | Stability RE (Fecal, 3000 ng/mL, Short-term (25 °C, 24 h)): 4.8% | Stability RE (Heart, 10 ng/mL, Freeze-thaw Cycles): 3.5% | Stability RE (Heart, 10 ng/mL, Long-term (−70 °C, 4 Weeks)): 3.3% | Stability RE (Heart, 10 ng/mL, Short-term (25 °C, 24 h)): 3.9% | Stability RE (Heart, 200 ng/mL, Freeze-thaw Cycles): −0.3% | Stability RE (Heart, 200 ng/mL, Long-term (−70 °C, 4 Weeks)): −0.7% | Stability RE (Heart, 200 ng/mL, Short-term (25 °C, 24 h)): −0.7% | Stability RE (Heart, 3000 ng/mL, Freeze-thaw Cycles): 6.3% | Stability RE (Heart, 3000 ng/mL, Long-term (−70 °C, 4 Weeks)): 6.5% | Stability RE (Heart, 3000 ng/mL, Short-term (25 °C, 24 h)): 6.3% | Stability RE (Plasma, 10 ng/mL, Freeze-thaw Cycles): 6.3% | Stability RE (Plasma, 10 ng/mL, Long-term (−70 °C, 4 Weeks)): 5.8% | Stability RE (Plasma, 10 ng/mL, Short-term (25 °C, 24 h)): 5.1% | Stability RE (Plasma, 200 ng/mL, Freeze-thaw Cycles): 7.9% | Stability RE (Plasma, 200 ng/mL, Long-term (−70 °C, 4 Weeks)): 7.3% | Stability RE (Plasma, 200 ng/mL, Short-term (25 °C, 24 h)): 6.8% | Stability RE (Plasma, 3000 ng/mL, Freeze-thaw Cycles): 1.7% | Stability RE (Plasma, 3000 ng/mL, Long-term (−70 °C, 4 Weeks)): 2% | Stability RE (Plasma, 3000 ng/mL, Short-term (25 °C, 24 h)): 1.5% | Stability RE (Urinary, 10 ng/mL, Freeze-thaw Cycles): 8.1% | Stability RE (Urinary, 10 ng/mL, Long-term (−70 °C, 4 Weeks)): 8.4% | Stability RE (Urinary, 10 ng/mL, Short-term (25 °C, 24 h)): 6.6% | Stability RE (Urinary, 200 ng/mL, Freeze-thaw Cycles): 4.2% | Stability RE (Urinary, 200 ng/mL, Long-term (−70 °C, 4 Weeks)): −1.2% | Stability RE (Urinary, 200 ng/mL, Short-term (25 °C, 24 h)): 5.3% | Stability RE (Urinary, 3000 ng/mL, Freeze-thaw Cycles): −5.5% | Stability RE (Urinary, 3000 ng/mL, Long-term (−70 °C, 4 Weeks)): −3.3% | Stability RE (Urinary, 3000 ng/mL, Short-term (25 °C, 24 h)): −5.6%
Structure (SMILES): C=CC1(C)CC(OC(=O)CSc2nc(N)cc(N)n2)C2(C)C(C)CCC3(CCC(=O)C32)C(C)C1O (centres unmarked) [DPTM, 14-O-[(4,6-Diaminopyrimidine-2-yl)thioacetyl] mutilin]
